Measured values: the supplement of paper PMC10331698
± gives the standard deviation of the averaged measurements. Most entries show no effect beyond the scatter of the controls.

Tests used:
Experiment in all cases: level (log10 ratio to DMSO vehicle control); higher = higher biomarker level / cell amount than vehicle control
[1] = compound: O=C(O)C(F)(F)C(F)(F)C(F)(F)C(F)(F)C(F)(F)C(F)(F)C(F)(F)C(F)(F)C(F)(F)C(F)F [11-H-Perfluoroundecanoic acid]; settings: 2200 nM; in DMSO
Method: (§1)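 BioMAP Diversity Plus panel of 12 human primary cell co-culture systems (3C, 4H, LPS, SAg, BT, BF4T, BE3C, CASM3C, HDF3CGF, KF3CT, MyoF, Mphg). Compounds were added 1 h before stimulation and left for 24 h (MyoF 48 h; BT 72 h for soluble read-outs or 6 d for IgG). Biomarkers were read by ELISA, cytotoxicity by SRB, PBMC viability and proliferation by Alamar Blue. Each well value was divided by the mean of 8 DMSO control wells on the same plate and log10 transformed; duplicate blinded samples were tested at 4 concentrations.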

Perfluoropentanoic acid = compound: O=C(O)C(F)(F)C(F)(F)C(F)(F)C(F)(F)F [Perfluoropentanoic acid]; settings: in DMSO
Method: as §1

Octafluoroadipic acid = compound: O=C(O)C(F)(F)C(F)(F)C(F)(F)C(F)(F)C(=O)O [Octafluoroadipic acid]; settings: 2200 nM; in DMSO
Method: as §1

[2] = compound: O=S(=O)(O)CCC(F)(F)C(F)(F)C(F)(F)C(F)(F)C(F)(F)C(F)(F)C(F)(F)C(F)(F)F [8:2 Fluorotelomer sulfonic acid]; settings: in DMSO
Method: as §1

[3] = compound: FC(F)(F)C(F)(F)C(F)(F)C(F)(F)C(F)(F)C(F)(F)CC1CO1 [3-(Perfluorohexyl)-1,2-epoxypropane]; settings: 2200 nM; in DMSO
Method: as §1

[4] = compound: Cc1ccc(S(=O)(=O)OCC(F)(F)C(F)(F)C(F)(F)C(F)(F)C(F)(F)C(F)F)cc1 [1H,1H,7H-Perfluoroheptyl 4-methylbenzenesulfonate]; settings: 2200 nM; in DMSO
Method: as §1

Perfluoroheptanoic acid = compound: O=C(O)C(F)(F)C(F)(F)C(F)(F)C(F)(F)C(F)(F)C(F)(F)F [Perfluoroheptanoic acid]; settings: in DMSO
Method: as §1

[5] = compound: CCN(CCO)S(=O)(=O)C(F)(F)C(F)(F)C(F)(F)C(F)(F)C(F)(F)C(F)(F)C(F)(F)C(F)(F)F [N-Ethyl-N-(2-hydroxyethyl)perfluorooctanesulfonamide]; settings: in DMSO
Method: as §1

[6] = compound: O=C(O)C(F)(F)C(F)(F)C(F)(F)OC(F)(F)F [Perfluoro(4-methoxybutanoic) acid]; settings: 2200 nM; in DMSO
Method: as §1

1H,1H-Heptafluorobutanol = compound: OCC(F)(F)C(F)(F)C(F)(F)F [1H,1H-Heptafluorobutanol]; settings: 2200 nM; in DMSO
Method: as §1

Heptafluorobutyramide = compound: NC(=O)C(F)(F)C(F)(F)C(F)(F)F [Heptafluorobutyramide]; settings: 2200 nM; in DMSO
Method: as §1

[7] = compound: NCC(F)(F)C(F)(F)C(F)(F)C(F)(F)C(F)(F)C(F)(F)C(F)(F)F [1H,1H-Perfluorooctylamine]; settings: 2200 nM; in DMSO
Method: as §1

[8] = compound: CN(C(=O)C(F)(F)C(F)(F)C(F)(F)F)[Si](C)(C)C [N-Methyl-N-trimethylsilylheptafluorobutyramide]; settings: 2200 nM; in DMSO
Method: as §1

[9] = compound: CC(C)(C)C(=O)CC(=O)C(F)(F)C(F)(F)C(F)(F)F [(Heptafluorobutanoyl)pivaloylmethane]; settings: 2200 nM; in DMSO
Method: as §1

[10] = compound: OCCC(F)(F)C(F)(F)C(F)(F)C(F)(F)C(F)(F)C(F)(F)F [6:2 Fluorotelomer alcohol]; settings: 2200 nM; in DMSO
Method: as §1

1-(Perfluorohexyl)octane = compound: CCCCCCCCC(F)(F)C(F)(F)C(F)(F)C(F)(F)C(F)(F)C(F)(F)F [1-(Perfluorohexyl)octane]; settings: in DMSO
Method: as §1

| Test System | level (log10) [1] | level (log10) (Perfluoropentanoic acid; 2200 nM) | level (log10) (Perfluoropentanoic acid; 6700 nM) | level (log10) (Perfluoropentanoic acid; 20000 nM) | level (log10) (Perfluoropentanoic acid; 60000 nM) | level (log10) (Octafluoroadipic acid) | level (log10) ([2]; 2200 nM) | level (log10) ([2]; 6700 nM) | level (log10) ([2]; 20000 nM) | level (log10) ([2]; 60000 nM) | level (log10) [3] | level (log10) [4] | level (log10) (Perfluoroheptanoic acid; 2200 nM) | level (log10) (Perfluoroheptanoic acid; 6700 nM) | level (log10) (Perfluoroheptanoic acid; 20000 nM) | level (log10) (Perfluoroheptanoic acid; 60000 nM) | level (log10) ([5]; 2200 nM) | level (log10) ([5]; 6700 nM) | level (log10) ([5]; 20000 nM) | level (log10) [6] | level (log10) (1H,1H-Heptafluorobutanol) | level (log10) (Heptafluorobutyramide) | level (log10) [7] | level (log10) [8] | level (log10) [9] | level (log10) [10] | level (log10) (1-(Perfluorohexyl)octane; 740 nM) | level (log10) (1-(Perfluorohexyl)octane; 2200 nM) |
| --- | --- | --- | --- | --- | --- | --- | --- | --- | --- | --- | --- | --- | --- | --- | --- | --- | --- | --- | --- | --- | --- | --- | --- | --- | --- | --- | --- | --- |
| HDF3CGF:CD54/ICAM-1 | -0.0335 ± 0.012 | 0.0415 ± 0.071 | 0.039 ± 0.054 | 0.035 ± 0.033 | 0.0485 ± 0.046 | 0 ± 0.016 | -0.031 ± 0.035 | -0.012 ± 0.017 | -0.04 ± 0.011 | -0.0805 ± 0.012 | -0.016 ± 0.0014 | -0.0075 ± 0.00071 | -0.0045 ± 0.0021 | 0.004 ± 0.02 | -0.0145 ± 0.005 | -0.0255 ± 0.018 | 0.084 ± 0.0071 | 0.133 ± 0.019 | 0.089 ± 0.0042 | -0.0055 ± 0.0078 | -0.0045 ± 0.00071 | -0.007 ± 0.013 | -0.0025 ± 0.025 | -0.008 ± 0.025 | -0.0065 ± 0.012 | -0.0165 ± 0.013 | -0.0045 ± 0.015 | -0.011 ± 0.0099 |
| HDF3CGF:Proliferation 72hr | 0.033 ± 0.075 | -0.009 ± 0.033 | 0.002 ± 0.041 | 0.0505 ± 0.11 | 0.022 ± 0.03 | 0.0045 ± 0.044 | -0.0405 ± 0.021 | 0.0275 ± 0.044 | 0.0785 ± 0.06 | 0.107 ± 0.0014 | -0.049 ± 0.09 | -0.048 ± 0.068 | -0.078 ± 0.038 | -0.054 ± 0.033 | 0.0515 ± 0.098 | -0.018 ± 0.018 | -0.12 ± 0.13 | -0.391 ± 0.079 | -0.746 ± 0.094 | -0.049 ± 0.065 | -0.019 ± 0.034 | -0.0355 ± 0.074 | -0.021 ± 0.017 | 0.0305 ± 0.0078 | 0.002 ± 0.0014 | -0.0295 ± 0.0035 | -0.0455 ± 0.03 | -0.043 ± 0.051 |
| BF4T:Keratin 8/18 | -0.031 ± 0.016 | 0.0235 ± 0.015 | 0.0055 ± 0.0064 | -0.002 ± 0.0085 | 0.0055 ± 0.03 | 0.0125 ± 0.04 | 0.0085 ± 0.042 | 0.004 ± 0.0099 | -0.0005 ± 0.018 | 0.0245 ± 0.0078 | 0.016 ± 0.0042 | 0.009 ± 0.025 | 0.014 ± 0.013 | -0.0285 ± 0.0092 | -0.018 ± 0.0057 | 0.0045 ± 0.026 | 0.0245 ± 0.026 | -0.002 ± 0.0014 | -0.0005 ± 0.0021 | 0.0175 ± 0.028 | -0.0135 ± 0.064 | 0.012 ± 0.028 | 0.0015 ± 0.053 | -0.01 ± 0.051 | 0.015 ± 0.042 | 0.008 ± 0.014 | 0.013 | 0.006 ± 0.0028 |
| KF3CT:CXCL9/MIG | -0.009 ± 0.0071 | 0.001 ± 0.011 | -0.002 ± 0.0057 | -0.0055 ± 0.0021 | 0.0085 ± 0.013 | 0.012 ± 0.0099 | 0.0015 ± 0.016 | 0.005 ± 0.017 | 0.003 ± 0.0099 | 0.01 ± 0.0057 | 0.0025 ± 0.0078 | -0.0035 ± 0.023 | 0.007 ± 0.0014 | -0.0085 ± 0.005 | -0.0015 ± 0.0035 | 0.011 ± 0.013 | 0.0055 ± 0.011 | 0.004 ± 0.0085 | -0.032 ± 0.013 | 0.016 ± 0.0071 | -0.0045 ± 0.0092 | 0.011 ± 0.0071 | 0.001 ± 0.016 | -0.006 ± 0.024 | 0.0005 ± 0.005 | 0.0075 ± 0.005 | -0.0025 ± 0.015 | -0.003 ± 0.0028 |
| SAg:CD38 | 0.0015 ± 0.044 | -0.0115 ± 0.019 | 0.003 ± 0.017 | 0.0015 ± 0.011 | 0.002 ± 0.0057 | -0.023 ± 0.04 | 0.008 ± 0.033 | -0.0175 ± 0.04 | -0.02 ± 0.034 | -0.0595 ± 0.053 | 0.01 ± 0.017 | 0.013 ± 0.021 | -0.0035 ± 0.018 | -0.02 ± 0.0042 | -0.001 ± 0.0057 | -0.0225 ± 0.03 | -0.0025 ± 0.036 | -0.027 ± 0.017 | -0.0955 ± 0.012 | -0.01 ± 0.016 | -0.0025 ± 0.07 | -0.017 ± 0.017 | -0.0075 ± 0.032 | 0.015 ± 0.048 | 0.057 ± 0.071 | 0.012 ± 0.021 | 0.0105 ± 0.046 | 0.002 ± 0.027 |
